Measured values as given in the supplement of paper PMC10849652.
Some of the results follow.

Sequences of proteins named here, by UniProt entry; tags and fusion partners are left off. A change or cut given only in a name is not applied to a line headed by its entry.
UniProt Q8WU10: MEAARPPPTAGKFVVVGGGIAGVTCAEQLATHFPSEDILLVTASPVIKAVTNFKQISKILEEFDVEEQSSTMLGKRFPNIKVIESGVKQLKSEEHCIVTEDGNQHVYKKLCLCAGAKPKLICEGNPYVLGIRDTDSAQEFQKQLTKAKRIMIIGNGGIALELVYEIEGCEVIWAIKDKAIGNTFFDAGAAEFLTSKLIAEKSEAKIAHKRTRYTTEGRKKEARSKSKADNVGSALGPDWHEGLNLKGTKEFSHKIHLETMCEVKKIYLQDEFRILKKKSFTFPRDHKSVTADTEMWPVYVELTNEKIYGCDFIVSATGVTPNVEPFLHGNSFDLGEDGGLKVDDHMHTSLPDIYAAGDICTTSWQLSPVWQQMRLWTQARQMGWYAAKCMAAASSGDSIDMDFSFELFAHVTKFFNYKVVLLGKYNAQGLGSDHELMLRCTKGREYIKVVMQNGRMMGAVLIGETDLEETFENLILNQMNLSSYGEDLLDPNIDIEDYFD
UniProt O43502: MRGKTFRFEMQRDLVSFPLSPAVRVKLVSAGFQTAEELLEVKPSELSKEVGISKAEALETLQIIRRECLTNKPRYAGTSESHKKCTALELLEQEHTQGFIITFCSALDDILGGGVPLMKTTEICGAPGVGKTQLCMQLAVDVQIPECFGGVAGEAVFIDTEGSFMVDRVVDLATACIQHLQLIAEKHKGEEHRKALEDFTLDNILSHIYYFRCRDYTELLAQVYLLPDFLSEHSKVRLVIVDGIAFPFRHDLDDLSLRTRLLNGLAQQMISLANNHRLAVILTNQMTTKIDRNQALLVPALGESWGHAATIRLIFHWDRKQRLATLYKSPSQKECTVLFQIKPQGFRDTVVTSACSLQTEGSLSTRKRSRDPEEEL
UniProt Q9NS91, whole entry, looked up: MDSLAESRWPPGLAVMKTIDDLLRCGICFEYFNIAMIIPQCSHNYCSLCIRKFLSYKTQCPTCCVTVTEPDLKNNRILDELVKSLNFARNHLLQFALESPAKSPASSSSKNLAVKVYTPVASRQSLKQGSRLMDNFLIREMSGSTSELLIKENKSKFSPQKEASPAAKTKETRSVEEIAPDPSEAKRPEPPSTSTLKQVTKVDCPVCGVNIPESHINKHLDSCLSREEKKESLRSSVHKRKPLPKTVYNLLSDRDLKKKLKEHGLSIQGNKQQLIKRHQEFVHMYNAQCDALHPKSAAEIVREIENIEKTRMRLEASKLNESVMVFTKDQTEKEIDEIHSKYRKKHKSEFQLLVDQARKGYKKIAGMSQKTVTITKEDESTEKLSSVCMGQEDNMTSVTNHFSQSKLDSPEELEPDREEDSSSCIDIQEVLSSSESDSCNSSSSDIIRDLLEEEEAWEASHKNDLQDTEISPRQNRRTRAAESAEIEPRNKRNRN
UniProt Q9H2T7: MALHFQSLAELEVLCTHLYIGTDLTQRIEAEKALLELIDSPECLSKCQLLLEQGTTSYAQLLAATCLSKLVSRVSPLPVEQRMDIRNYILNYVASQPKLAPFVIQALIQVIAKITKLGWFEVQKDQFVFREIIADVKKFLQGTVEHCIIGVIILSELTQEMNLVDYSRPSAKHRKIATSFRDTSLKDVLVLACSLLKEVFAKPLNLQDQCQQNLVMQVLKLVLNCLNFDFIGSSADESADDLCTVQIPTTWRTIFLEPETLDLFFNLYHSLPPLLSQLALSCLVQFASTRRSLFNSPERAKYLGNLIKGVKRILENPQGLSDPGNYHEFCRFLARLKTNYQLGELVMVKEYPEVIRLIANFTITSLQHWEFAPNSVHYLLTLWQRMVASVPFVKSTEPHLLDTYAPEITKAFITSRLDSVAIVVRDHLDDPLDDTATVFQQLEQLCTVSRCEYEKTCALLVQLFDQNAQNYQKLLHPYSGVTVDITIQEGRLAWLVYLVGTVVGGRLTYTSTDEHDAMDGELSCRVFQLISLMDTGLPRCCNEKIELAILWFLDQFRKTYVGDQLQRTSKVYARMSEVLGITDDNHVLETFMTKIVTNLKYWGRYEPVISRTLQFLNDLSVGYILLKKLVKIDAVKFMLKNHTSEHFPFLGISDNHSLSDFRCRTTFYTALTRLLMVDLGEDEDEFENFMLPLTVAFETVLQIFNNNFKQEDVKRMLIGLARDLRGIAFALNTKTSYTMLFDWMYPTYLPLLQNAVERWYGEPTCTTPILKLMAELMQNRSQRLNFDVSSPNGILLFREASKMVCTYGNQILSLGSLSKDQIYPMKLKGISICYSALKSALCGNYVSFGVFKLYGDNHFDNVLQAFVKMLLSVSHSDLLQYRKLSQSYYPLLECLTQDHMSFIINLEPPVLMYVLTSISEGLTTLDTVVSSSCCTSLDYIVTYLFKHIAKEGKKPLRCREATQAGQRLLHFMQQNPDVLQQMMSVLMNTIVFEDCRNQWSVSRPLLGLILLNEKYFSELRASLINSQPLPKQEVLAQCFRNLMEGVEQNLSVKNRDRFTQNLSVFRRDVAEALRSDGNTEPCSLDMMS
UniProt Q9Y3P9: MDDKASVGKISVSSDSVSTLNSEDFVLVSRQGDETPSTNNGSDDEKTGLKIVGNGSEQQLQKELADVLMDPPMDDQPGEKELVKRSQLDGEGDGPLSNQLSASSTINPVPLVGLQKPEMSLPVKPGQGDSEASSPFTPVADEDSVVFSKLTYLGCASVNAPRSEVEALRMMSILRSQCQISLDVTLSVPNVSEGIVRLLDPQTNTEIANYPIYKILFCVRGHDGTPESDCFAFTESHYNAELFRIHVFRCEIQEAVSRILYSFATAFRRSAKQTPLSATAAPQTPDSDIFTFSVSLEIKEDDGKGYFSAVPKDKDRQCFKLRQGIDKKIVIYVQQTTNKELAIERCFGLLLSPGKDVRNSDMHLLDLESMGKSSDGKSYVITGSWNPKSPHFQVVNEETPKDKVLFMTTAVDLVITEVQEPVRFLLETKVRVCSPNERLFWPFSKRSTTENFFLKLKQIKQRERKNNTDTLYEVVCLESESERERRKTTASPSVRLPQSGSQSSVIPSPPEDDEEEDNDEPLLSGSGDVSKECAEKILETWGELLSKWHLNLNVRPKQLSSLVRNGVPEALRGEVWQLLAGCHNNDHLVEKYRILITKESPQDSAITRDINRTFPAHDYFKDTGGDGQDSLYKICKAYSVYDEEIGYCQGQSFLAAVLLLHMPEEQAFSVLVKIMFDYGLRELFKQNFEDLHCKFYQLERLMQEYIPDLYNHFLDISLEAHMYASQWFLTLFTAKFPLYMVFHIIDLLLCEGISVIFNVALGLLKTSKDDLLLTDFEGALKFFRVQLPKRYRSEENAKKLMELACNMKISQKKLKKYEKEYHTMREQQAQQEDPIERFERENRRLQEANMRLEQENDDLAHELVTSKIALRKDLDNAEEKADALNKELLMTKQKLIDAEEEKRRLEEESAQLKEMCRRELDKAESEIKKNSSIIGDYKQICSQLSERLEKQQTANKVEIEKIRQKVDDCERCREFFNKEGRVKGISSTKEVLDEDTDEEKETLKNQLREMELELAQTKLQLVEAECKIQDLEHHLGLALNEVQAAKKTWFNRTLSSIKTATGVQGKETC
UniProt Q6WKZ4: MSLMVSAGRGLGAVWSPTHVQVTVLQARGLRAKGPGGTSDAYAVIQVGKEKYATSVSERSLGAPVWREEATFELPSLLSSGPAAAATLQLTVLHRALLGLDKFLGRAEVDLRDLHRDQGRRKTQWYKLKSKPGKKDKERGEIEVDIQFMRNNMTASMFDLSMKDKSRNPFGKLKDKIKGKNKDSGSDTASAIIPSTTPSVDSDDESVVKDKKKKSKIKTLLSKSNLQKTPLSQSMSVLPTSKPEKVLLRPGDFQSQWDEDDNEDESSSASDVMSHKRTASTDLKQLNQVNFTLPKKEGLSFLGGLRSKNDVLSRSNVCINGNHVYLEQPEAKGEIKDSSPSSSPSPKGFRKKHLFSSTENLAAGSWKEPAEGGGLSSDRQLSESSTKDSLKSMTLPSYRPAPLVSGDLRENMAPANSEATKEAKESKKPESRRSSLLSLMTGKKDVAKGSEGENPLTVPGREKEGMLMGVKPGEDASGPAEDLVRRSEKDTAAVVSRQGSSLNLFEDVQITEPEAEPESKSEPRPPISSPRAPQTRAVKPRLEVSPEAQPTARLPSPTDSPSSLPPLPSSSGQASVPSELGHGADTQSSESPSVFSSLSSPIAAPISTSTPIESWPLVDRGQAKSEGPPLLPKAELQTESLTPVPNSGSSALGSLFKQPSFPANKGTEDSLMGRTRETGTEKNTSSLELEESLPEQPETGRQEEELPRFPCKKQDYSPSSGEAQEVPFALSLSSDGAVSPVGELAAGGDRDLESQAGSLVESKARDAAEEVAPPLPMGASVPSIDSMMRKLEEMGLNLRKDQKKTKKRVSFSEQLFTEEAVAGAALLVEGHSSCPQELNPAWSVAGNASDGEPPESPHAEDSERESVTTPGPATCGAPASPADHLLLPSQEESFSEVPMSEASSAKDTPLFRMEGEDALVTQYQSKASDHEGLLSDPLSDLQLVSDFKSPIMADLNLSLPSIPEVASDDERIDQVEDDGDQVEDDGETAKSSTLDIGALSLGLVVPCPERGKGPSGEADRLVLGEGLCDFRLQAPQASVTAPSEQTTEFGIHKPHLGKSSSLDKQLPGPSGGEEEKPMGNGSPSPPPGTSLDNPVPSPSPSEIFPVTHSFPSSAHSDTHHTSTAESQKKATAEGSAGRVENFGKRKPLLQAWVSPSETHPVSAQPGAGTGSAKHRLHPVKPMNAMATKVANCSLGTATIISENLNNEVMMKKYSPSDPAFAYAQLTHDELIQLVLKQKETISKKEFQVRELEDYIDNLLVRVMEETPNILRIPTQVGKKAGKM
UniProt Q92878: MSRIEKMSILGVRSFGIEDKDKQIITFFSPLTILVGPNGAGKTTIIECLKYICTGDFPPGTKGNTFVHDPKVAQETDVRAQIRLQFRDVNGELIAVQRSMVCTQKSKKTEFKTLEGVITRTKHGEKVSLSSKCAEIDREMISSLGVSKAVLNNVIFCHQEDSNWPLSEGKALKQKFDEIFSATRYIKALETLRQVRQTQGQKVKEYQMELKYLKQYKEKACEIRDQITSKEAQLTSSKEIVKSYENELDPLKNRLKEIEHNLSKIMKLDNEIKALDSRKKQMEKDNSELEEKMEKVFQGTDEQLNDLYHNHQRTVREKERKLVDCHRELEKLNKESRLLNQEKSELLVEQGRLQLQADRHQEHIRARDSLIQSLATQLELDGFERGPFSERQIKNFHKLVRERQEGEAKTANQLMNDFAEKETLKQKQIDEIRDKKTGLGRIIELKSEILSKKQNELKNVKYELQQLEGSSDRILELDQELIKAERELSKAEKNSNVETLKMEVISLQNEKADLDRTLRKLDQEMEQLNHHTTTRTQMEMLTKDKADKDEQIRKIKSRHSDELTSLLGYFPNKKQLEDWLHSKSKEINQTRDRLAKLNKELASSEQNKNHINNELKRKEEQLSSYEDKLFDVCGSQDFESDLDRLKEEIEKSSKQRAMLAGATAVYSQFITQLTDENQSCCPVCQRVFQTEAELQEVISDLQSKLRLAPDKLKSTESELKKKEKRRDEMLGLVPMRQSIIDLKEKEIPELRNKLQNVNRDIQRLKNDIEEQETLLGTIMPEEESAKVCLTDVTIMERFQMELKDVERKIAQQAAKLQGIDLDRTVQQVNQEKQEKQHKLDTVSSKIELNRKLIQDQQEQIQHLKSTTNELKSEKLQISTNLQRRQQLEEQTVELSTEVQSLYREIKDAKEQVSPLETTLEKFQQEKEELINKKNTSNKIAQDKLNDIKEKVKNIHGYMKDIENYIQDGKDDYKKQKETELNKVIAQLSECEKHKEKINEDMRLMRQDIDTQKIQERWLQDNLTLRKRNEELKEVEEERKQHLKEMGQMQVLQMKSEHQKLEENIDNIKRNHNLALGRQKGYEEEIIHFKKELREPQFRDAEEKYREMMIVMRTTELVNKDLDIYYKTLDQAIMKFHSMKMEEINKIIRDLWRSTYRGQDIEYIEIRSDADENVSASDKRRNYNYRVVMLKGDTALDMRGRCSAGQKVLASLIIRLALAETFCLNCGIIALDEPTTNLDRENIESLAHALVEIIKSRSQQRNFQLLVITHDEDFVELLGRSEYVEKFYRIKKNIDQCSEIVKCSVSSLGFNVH

Assays:
Assay in all cases: log2 fold change, soluble protein after heating vs DMSO (PISA); higher = thermal stabilisation; K562 lysate, 10 uM; active = over 0.2 and 3.5 SD of the protein, either way, in both replicates (recomputed)
alvocidib = compound: CN1CC[C@H](c2c(O)cc(O)c3c(=O)cc(-c4ccccc4Cl)oc23)[C@H](O)C1 [alvocidib]
Summary of the method: (§1)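 A 30 min treatment with 10 μM compound was applied to crude K562 extract at 1 mg/mL protein in PBS pH 7.4 with 1 mM MgCl2. Heating for 3 min spanned 48°C-58°C, after which aliquots were pooled, adjusted to 0.5% NP-40 at 4°C and spun at 21,000xg for 90 min. TMTpro 16plex LC-MS/MS of the supernatant, with channel sums equalised, gave values recorded as log-two fold change in thermal stability against solvent controls, from duplicates.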

Tubastatin A = compound: CN1CCc2c(c3ccccc3n2Cc2ccc(C(=O)NO)cc2)C1 [Tubastatin A]
Summary of the method: as §1

[1] = compound: CNC(=O)C1=CC=CC=C1NC2=NC(=NC=C2Cl)NC3=C(C=C(C=C3)N4CCOCC4)OC
Summary of the method: as §1

defactinib = compound: CNC(=O)c1ccc(Nc2ncc(C(F)(F)F)c(NCc3nccnc3N(C)S(C)(=O)=O)n2)cc1 [defactinib]
Summary of the method: as §1

[2] = compound: CNc1nc(-c2ccc3c(N)n[nH]c3c2)cc(N2C[C@@H](C(=O)NC3CCCCC3)CC[C@H]2C)n1
Summary of the method: as §1

encorafenib = compound: COC(=O)N[C@@H](C)CNc1nccc(-c2cn(C(C)C)nc2-c2cc(Cl)cc(NS(C)(=O)=O)c2F)n1 [encorafenib]
Summary of the method: as §1

[3] = compound: COC(=O)[C@H](CCSC)NC(=O)C1=C(C=C(C=C1)NC[C@H](CS)N)C2=CC=CC=C2
Summary of the method: as §1

alisertib = compound: COc1cc(Nc2ncc3c(n2)-c2ccc(Cl)cc2C(c2c(F)cccc2OC)=NC3)ccc1C(=O)O [alisertib]
Summary of the method: as §1

[4] = compound: COc1cc2nc(-c3cc(F)ccc3O)nc(N[C@@H]3CNC[C@H]3C(C)(C)O)c2cc1OC
Summary of the method: as §1

gefitinib = compound: COc1cc2ncnc(Nc3ccc(F)c(Cl)c3)c2cc1OCCCN1CCOCC1 [gefitinib]
Summary of the method: as §1

lapatinib = compound: CS(=O)(=O)CCNCc1ccc(-c2ccc3ncnc(Nc4ccc(OCc5cccc(F)c5)c(Cl)c4)c3c2)o1 [lapatinib]
Summary of the method: as §1

pictilisib = compound: CS(=O)(=O)N1CCN(Cc2cc3nc(-c4cccc5[nH]ncc45)nc(N4CCOCC4)c3s2)CC1 [pictilisib]
Summary of the method: as §1

crizotinib = compound: C[C@@H](Oc1cc(-c2cnn(C3CCNCC3)c2)cnc1N)c1c(Cl)ccc(F)c1Cl [crizotinib]
Summary of the method: as §1

[5] = compound: C[C@H](C1=CC=C(C=C1)C(=O)NC2=C3C=CNC3=NC=C2)N
Summary of the method: as §1

duvelisib = compound: C[C@H](Nc1ncnc2nc[nH]c12)c1cc2cccc(Cl)c2c(=O)n1-c1ccccc1 [duvelisib]
Summary of the method: as §1

gandotinib = compound: Cc1cc(Nc2cc(CN3CCOCC3)c3nc(C)c(Cc4ccc(Cl)cc4F)n3n2)n[nH]1 [gandotinib]
Summary of the method: as §1

tozasertib = compound: Cc1cc(Nc2cc(N3CCN(C)CC3)nc(Sc3ccc(NC(=O)C4CC4)cc3)n2)n[nH]1 [tozasertib]
Summary of the method: as §1

doramapimod = compound: Cc1ccc(-n2nc(C(C)(C)C)cc2NC(=O)Nc2ccc(OCCN3CCOCC3)c3ccccc23)cc1 [doramapimod]
Summary of the method: as §1

bafetinib = compound: Cc1ccc(NC(=O)c2ccc(CN3CC[C@H](N(C)C)C3)c(C(F)(F)F)c2)cc1Nc1nccc(-c2cncnc2)n1 [bafetinib]
Summary of the method: as §1

[6] = compound: Cc1cccc(CC(=O)N2CCc3c2ccc(-c2cn(C)c4ncnc(N)c24)c3F)n1
Summary of the method: as §1

Measured: log2 fold change

PYROXD1 (UniProt Q8WU10)
inactive: alvocidib 0.139 | Tubastatin A -0.101 | [1] -0.057 | defactinib 0.085 | [2] -0.001 | encorafenib 0.04 | [3] 0.007 | alisertib -0.054 | [4] -0.064 | gefitinib 0.058 | lapatinib -0.129 | pictilisib 0.005 | crizotinib 0.065 | [5] -0.088 | duvelisib -0.026 | gandotinib -0.214 | tozasertib 0.002 | doramapimod -0.011 | bafetinib 0.014 | [6] 0.016

RAD51C (UniProt O43502)
inactive: alvocidib 0.061 | Tubastatin A -0.081 | [1] 0.002 | defactinib 0.035 | [2] 0.072 | encorafenib -0.058 | [3] 0.004 | alisertib -0.005 | [4] 0.047 | gefitinib -0.016 | lapatinib -0.042 | pictilisib -0.023 | crizotinib -0.074 | [5] -0.006 | duvelisib 0.022 | gandotinib 0.065 | tozasertib -0.089 | doramapimod 0.074 | bafetinib -0.119 | [6] -0.044

RAD18 (UniProt Q9NS91)
inactive: alvocidib -0.017 | Tubastatin A 0.008 | [1] 0.038 | defactinib 0.019 | [2] 0.009 | encorafenib 0.044 | [3] -0.073 | alisertib 0.028 | [4] 0.019 | gefitinib -0.014 | lapatinib -0.093 | pictilisib 0.006 | crizotinib 0.015 | [5] 0.014 | duvelisib 0.023 | gandotinib 0.002 | tozasertib 0.04 | doramapimod 0.04 | bafetinib -0.024 | [6] 0.022

RANBP17 (UniProt Q9H2T7)
inactive: alvocidib -0.076 | Tubastatin A 0.035 | [1] 0.011 | defactinib -0.026 | [2] 0.03 | encorafenib -0.037 | [3] -0.078 | alisertib -0.048 | [4] 0.005 | gefitinib -0.146 | lapatinib -0.06 | pictilisib 0.1 | crizotinib -0.143 | [5] -0.026 | duvelisib 0.018 | gandotinib 0.084 | tozasertib -0.079 | doramapimod -0.124 | bafetinib 0.004 | [6] 0.006

RABGAP1 (UniProt Q9Y3P9)
inactive: alvocidib -0.009 | Tubastatin A -0.032 | [1] 0.014 | defactinib 0.004 | [2] 0 | encorafenib 0.006 | [3] -0.01 | alisertib -0.023 | [4] 0.013 | gefitinib -0.026 | lapatinib 0.012 | pictilisib -0.012 | crizotinib 0.002 | [5] 0.003 | duvelisib 0.038 | gandotinib -0.03 | tozasertib 0.004 | doramapimod -0.002 | bafetinib -0.001 | [6] -0.018

RAB11FIP1 (UniProt Q6WKZ4)
inactive: alvocidib -0.022 | Tubastatin A 0.011 | [1] 0.015 | defactinib 0.01 | [2] 0.051 | encorafenib 0.044 | [3] -0.059 | alisertib -0.018 | [4] 0.013 | gefitinib -0.036 | lapatinib -0.003 | pictilisib -0.002 | crizotinib -0.005 | [5] -0.014 | duvelisib 0 | gandotinib -0.05 | tozasertib -0.008 | doramapimod 0.032 | bafetinib -0.049 | [6] 0.013

RAD50 isoform 2 (UniProt Q92878)
inactive: alvocidib 0.023 | Tubastatin A -0.137 | [1] 0.008 | defactinib 0.026 | [2] -0.04 | encorafenib 0.006 | [3] 0.108 | alisertib 0.002 | [4] 0.001 | gefitinib -0.016 | lapatinib -0.012 | pictilisib -0.001 | crizotinib -0.025 | [5] 0.007 | duvelisib -0.019 | gandotinib -0.07 | tozasertib 0.011 | doramapimod -0.003 | bafetinib -0.004 | [6] 0.006

RAB3IL1 (UniProt E9PK89)
inactive: alvocidib -0.008 | Tubastatin A -0.025 | [1] 0.023 | defactinib 0.123 | [2] 0.005 | encorafenib 0.047 | [3] 0.024 | alisertib 0.032 | [4] -0.07 | gefitinib 0 | lapatinib -0.025 | pictilisib 0.063 | crizotinib 0.039 | [5] 0.045 | duvelisib -0.036 | gandotinib 0.006 | tozasertib 0.059 | doramapimod -0.117 | bafetinib -0.094 | [6] 0.057
